Measured values as given in PMC4758748.
No constants are given. Whether binding was seen depends on the method and setting. In cells and extracts the contact can be indirect. Some results given as binding are weak or reduced against the parent protein; the word gives no strength. Where a sequence is shown, tags or fusion partners need not be part of it.

How the values were obtained:
[1] = molecular target: T1, Inn1-TAP (S. cerevisiae) (UniProt P53901); assay: co-IP; two steps: yeast extract 105 minutes after release from G1; Inn1-TAP on IgG beads, released with TEV protease (CBP stays on Inn1), then immunoprecipitation of Chs2-9MYC; immunoblot
T1 sequence: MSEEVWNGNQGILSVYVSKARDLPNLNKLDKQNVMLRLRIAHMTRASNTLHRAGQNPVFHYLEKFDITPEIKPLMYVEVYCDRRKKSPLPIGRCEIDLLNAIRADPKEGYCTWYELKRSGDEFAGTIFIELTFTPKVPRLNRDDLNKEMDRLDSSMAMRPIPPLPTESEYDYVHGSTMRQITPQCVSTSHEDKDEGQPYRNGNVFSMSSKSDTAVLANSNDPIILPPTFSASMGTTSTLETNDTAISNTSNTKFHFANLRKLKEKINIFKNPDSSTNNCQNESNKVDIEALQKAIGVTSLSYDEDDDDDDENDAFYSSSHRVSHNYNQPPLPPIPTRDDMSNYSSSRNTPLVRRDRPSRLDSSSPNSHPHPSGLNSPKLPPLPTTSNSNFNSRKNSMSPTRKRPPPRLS

[2] = molecular target: T1, Inn1-TAP (S. cerevisiae); assay: co-IP; yeast cell extracts 105 minutes after release from G1 arrest (alpha factor) at 24°C, cells in cytokinesis; TAP fusions immunoprecipitated on IgG beads; immunoblot
[3] = molecular target: T2, Inn1 C-terminus-TAP (S. cerevisiae) (UniProt P53901); assay: as above
T2 sequence: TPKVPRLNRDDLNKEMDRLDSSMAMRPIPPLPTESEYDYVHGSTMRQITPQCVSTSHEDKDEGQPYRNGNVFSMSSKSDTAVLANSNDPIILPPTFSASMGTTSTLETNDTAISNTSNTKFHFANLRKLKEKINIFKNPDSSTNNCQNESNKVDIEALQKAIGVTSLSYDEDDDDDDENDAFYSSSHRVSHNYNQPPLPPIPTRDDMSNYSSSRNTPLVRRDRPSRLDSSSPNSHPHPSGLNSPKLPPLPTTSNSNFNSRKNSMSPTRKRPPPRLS

[4] = molecular target: T3, C2-TAP (S. cerevisiae) (UniProt P53901); assay: as above
T3 sequence: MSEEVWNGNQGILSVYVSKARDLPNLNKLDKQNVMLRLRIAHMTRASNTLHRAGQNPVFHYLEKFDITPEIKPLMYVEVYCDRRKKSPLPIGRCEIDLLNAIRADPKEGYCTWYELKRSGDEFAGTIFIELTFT

Measured: binding

B1: Chs2-9MYC (enzyme, UniProt P14180 1-963)
chain: MTRNPFMVEPSNGSPNRRGASNLSKFYANANSNSRWANPSEESLEDSYDQSNVFQGLPASPSRAALRYSPDRRHRTQFYRDSAHNSPVAPNRYAANLQESPKRAGEAVIHLSEGSNLYPRDNADLPVDPYHLSPQQQPSNNLFGSGRLYSQSSKYTMSTTSTTAPSLAEADDEKEKYLTSTTSYDDQSTIFSADTFNETKFELNHPTRQQYVRRANSESKRRMVSDLPPPSKKKALLKLDNPIPKGLLDTLPRRNSPEFTEMRYTACTVEPDDFLREGYTLRFAEMNRECQIAICITMYNEDKYSLARTIHSIMKNVAHLCKREKSHVWGPNGWKKVSVILISDGRAKVNQGSLDYLAALGVYQEDMAKASVNGDPVKAHIFELTTQVSINADLDYVSKDIVPVQLVFCLKEENKKKINSHRWLFNAFCPVLQPTVVTLVDVGTRLNNTAIYRLWKVFDMDSNVAGAAGQIKTMKGKWGLKLFNPLVASQNFEYKISNILDKPLESVFGYISVLPGALSAYRYRALKNHEDGTGPLRSYFLGETQEGRDHDVFTANMYLAEDRILCWELVAKRDAKWVLKYVKEATGETDVPEDVSEFISQRRRWLNGAMFAAIYAQLHFYQIWKTKHSVVRKFFLHVEFLYQFIQMLFSWFSIANFVLTFYYLAGSMNLVIKHGEALFIFFKYLIFCDLASLFIISMGNRPQGAKHLFITSMVILSICATYSLICGFVFAFKSLASGTESHKIFVDIVISLLSTYGLYFFSSLMYLDPWHMFTSSIQYFLTLPAFTCTLQIFAFCNTHDVSWGTKGSTQESKQLSKAIVVQGPDGKQIVETDWPQEVDKKFLEIKSRLKEPEFEESSGNEKQSKNDYYRDIRTRIVMIWMLSNLILIMSIIQVFTPQDTDNGYLIFILWSVAALAAFRVVGSMAFLFMKYLRIIVSYRNKVEGSGSWEVSKLDLPNVFHKKG
binds: all assays above
